From patent US6730659B2, “Antimicrobial peptides and methods of use thereof” (The Board of Regents of the University of Oklahoma, priority 1999, dated 2004)
Part of at least one peptide drawing is inferred or uncertain, most often the ends. No end group written: not given here.

Columns and labels:
[1] = system: Enterococcus faecalis (a clinical isolate); assay: in vitro bactericidal activity, Enterococcus faecalis; format: cell-based; conditions: FIG. 5
[2] = system: Staphylococcus aureus ATCC strain 25923; assay: in vitro bactericidal activity, Staphylococcus aureus; format: cell-based; conditions: FIG. 4
S. typhimurium LT2 = assay: survival of mice inoculated with live Salmonella typhimurium LT2; format: in vivo, mice (female, Balb/c)
Protocol: Mice (female, Balb/c, 6-8 weeks) were administered a dose of live S. typhimurium LT2 (8×10^8/mouse) via the oral route. Without treatment, this dose of live organisms led to the death of all animals between day 3 and 4 (i.e. LD100 at day 3 or 4). Following challenge with Salmonella, peptide 20-44 (0-150 μg/mouse) was administered via the intravenous; oral, and intraperitoneal routes. […] At day 6 post infection, 100% of animals given a dose of 125 μg of peptide 20-44 intravenously survived. 80% of mice given 50, 100 and 150 μg of peptide survived through to day 5. Data shown in FIG. 10 strongly indicate that peptide 20-44 may also be given via the oral route since 80% survival rates were obtained with 100 μg of peptide. This is evidence that the peptide is not destroyed by the acid environment and enzymes of the stomach and indicates an alternative route of administration to the intravenous route discussed in FIG. 9. The third route of administration of peptide 20-44 was the intraperitoneal route. This is often the method of choice in a veterinary situation.

[3] = system: LT2 strain of S. typhimurium; format: cell-based; conditions: FIG. 3
Protocol: Methods used herein are those previously described in U.S. Pat. Nos. 5,607,916; 5,627,262; and 5,650,392.
Peptides 20-44, 20-44ser26 and 20-44ser42, were assayed for bactericidal activity using S. typhimurium SH9178 as the test organism. […] Peptide 20-44ser42 killed 97.8% of bacteria at 75 μM, and peptide 20-44ser26 killed 99.6% of bacteria at 75 μM. Importantly, at concentrations of only 12.5 μM, peptide 20-44ser26 killed 70.4% of organisms and peptide 20-44ser42 killed 66.6% of bacteria. We tested these peptides with the smooth, more virulent LT2 strain of S. typhimurium, (FIG. 3). […] Indeed, the two serine analogs, 20-44ser26 and 20-44ser42 were able to kill 73% and 65% of bacteria at 12.5 μM, the lowest concentration of peptide tested. These levels of mortality were very much greater than those obtained using peptide 20-44. Two other organisms, Staphylococcus aureus ATCC strain 25923 and Enterococcus faecalis (a clinical isolate), both of which are gram-positive organisms, were also tested against 20-44ser26 and 20-44ser42.

## NQGRHFSGGALIHARFVMTAASCFQ [Peptide 20-44ser26]
[1]
  activity in words: potent activity
[2]
  activity in words: potent activity
S. typhimurium LT2; intraperitoneal, optimal doses, day 6 post infection, FIG. 16
  mice rescued: 80%
S. typhimurium LT2; oral, 75 μg, day 6, FIG. 17
  animals saved: 100%
[3]
  antibacterial activity in words: strong antibacterial activity

## NQGRHFCGGALIHARFVMTAASSFQ [Peptide 20-44ser42]
[1]
  activity in words: potent activity
[2]
  activity in words: potent activity
S. typhimurium LT2; intravenous, 25 μg and 50 μg, 11 days post infection, FIG. 18
  animals saved: 100%
S. typhimurium LT2; oral, between 100 and 125 μg, FIG. 20
  animals saved: 80-100%
[3]
  antibacterial activity in words: strong antibacterial activity
